Changes are numbered by the printed parent chain. For at least one entry, the source does not settle the construct or the ends of the probe. For some of these results: Weaker means in comparison with the reference protein, sequence or condition of that experiment. Protein sequences can lack the tags named with them. For some of these results: Where cells or extracts were used, other partners may take part.

Assay in all cases: EMSA
In series [1] the target is T1, IS2 OrfAB, refolded native (UniProt P51026).
T1 sequence (looked up, limits assumed): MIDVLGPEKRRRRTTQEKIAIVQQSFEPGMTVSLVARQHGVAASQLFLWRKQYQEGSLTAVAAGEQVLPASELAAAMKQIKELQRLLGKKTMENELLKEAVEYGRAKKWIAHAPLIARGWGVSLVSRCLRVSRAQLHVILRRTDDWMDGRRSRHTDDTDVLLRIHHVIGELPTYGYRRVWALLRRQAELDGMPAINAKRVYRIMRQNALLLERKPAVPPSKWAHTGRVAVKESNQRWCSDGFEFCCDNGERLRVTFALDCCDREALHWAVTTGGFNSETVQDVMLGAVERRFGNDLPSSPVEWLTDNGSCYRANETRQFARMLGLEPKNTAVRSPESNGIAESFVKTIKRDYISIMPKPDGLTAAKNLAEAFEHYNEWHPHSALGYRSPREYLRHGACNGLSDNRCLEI
As to conditions: 6.02 ug refolded protein, 2 nM DNA, bound very poorly; 20 mM Tris-Cl pH 8.0, 1 mM EDTA, 5 ug/mL calf thymus DNA, 10 nM DNA, 0.11-0.13 uM protein, 30 min at …; gels at 4 C; recombinant protein; label: 5'-32P upper strand.

The target in series [2] is T2, OrfAB-GFP GMF96 W237R W252R (UniProt P51026).
T2 sequence (looked up, limits assumed): T1 sequence (looked up, limits assumed) with W222R, W237R
The settings on record: 12% native PAGE; 20 mM Tris-Cl pH 8.0, 1 mM EDTA, 5 ug/mL calf thymus DNA, 10 nM DNA, 0.11-0.13 uM protein, 30 min at 20 C; gels at 4 C; recombinant protein; protein details: 6xHis, C-terminal GFPuv; label: 5'-32P upper strand.

In series [3] the target is T3, IS2 OrfAB-GFP, crude extract (pTW2orfAB::GFP) (UniProt P51026).
T3 sequence (looked up, limits assumed): T1 sequence (looked up, limits assumed)
As to conditions: ~80 nM protein, 2 nM DNA; 20 mM Tris-Cl pH 8.0, 1 mM EDTA, 5 ug/mL calf thymus DNA, 10 nM DNA, 0.11-0.13 uM protein, 30 min at 20 C; gels at 4 C; protein in a lysate after overexpression; protein details: C-terminal GFPuv, pTWIN2 intein/chitin tag; label: 5'-32P upper strand.

The target of series [4] is T4, IS2 OrfAB-GFP, IMPACT purified (pTW2orfAB::GFP) (UniProt P51026).
T4 sequence (looked up, limits assumed): T1 sequence (looked up, limits assumed)
As to conditions: 0.46 uM protein, 2 nM DNA, bound poorly; 20 mM Tris-Cl pH 8.0, 1 mM EDTA, 5 ug/mL calf thymus DNA, 10 nM DNA, 0.11-0.13 uM protein, 30 min at 20 C; gels at 4 C; recombinant protein; protein details: C-terminal GFPuv, chitin/intein purification; label: 5'-32P upper strand.

As for “GCTGACTTGACGGGACGGGGATCCTTAAGTGATAACAGATGTCTGGAAATATAGGGGCAAATCCAATCGACCTGCAGGCATATAAGC (double strand) [IRR 87-mer]”, the figures for the binding result in series [1], in series [3] and in series [4] were “binds more weakly”, “binds” and “binds more weakly”, respectively. For the same sequence, the binding signal (binding score (0-5)) in series [2] worked out at 5.
